Assay results from the supplement of paper PMC6411743.
± gives the standard deviation of the averaged measurements. This is a selection; strong and weak results do not stand in their true shares. Small differences around the control level are noise.

The chains behind the UniProt entries cited, without tags or fusion partners. Where a name states a change or a piece, a line headed by the entry shows the natural chain unless it says otherwise.
UniProt Q32MZ4: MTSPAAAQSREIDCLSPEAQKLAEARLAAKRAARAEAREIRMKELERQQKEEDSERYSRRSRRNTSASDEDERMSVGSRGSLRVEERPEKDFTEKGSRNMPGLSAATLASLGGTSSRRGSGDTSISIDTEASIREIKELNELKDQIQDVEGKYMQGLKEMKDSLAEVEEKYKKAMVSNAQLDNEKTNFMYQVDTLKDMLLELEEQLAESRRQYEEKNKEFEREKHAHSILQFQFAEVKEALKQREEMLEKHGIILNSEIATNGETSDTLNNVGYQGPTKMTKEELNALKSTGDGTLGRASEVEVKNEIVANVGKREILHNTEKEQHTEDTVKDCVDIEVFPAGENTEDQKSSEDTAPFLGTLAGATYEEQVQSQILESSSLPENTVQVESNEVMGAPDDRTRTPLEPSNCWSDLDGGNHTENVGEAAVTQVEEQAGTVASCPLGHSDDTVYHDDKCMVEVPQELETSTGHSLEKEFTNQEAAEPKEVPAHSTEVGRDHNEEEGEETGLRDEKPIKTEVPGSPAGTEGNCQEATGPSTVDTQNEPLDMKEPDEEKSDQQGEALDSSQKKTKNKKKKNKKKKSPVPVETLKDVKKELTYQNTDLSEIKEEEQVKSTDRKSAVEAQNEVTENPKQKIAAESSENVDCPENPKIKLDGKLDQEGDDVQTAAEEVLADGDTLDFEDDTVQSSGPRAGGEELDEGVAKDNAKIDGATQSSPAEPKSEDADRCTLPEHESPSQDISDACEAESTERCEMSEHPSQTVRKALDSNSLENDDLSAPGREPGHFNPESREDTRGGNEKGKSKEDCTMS
UniProt Q15819: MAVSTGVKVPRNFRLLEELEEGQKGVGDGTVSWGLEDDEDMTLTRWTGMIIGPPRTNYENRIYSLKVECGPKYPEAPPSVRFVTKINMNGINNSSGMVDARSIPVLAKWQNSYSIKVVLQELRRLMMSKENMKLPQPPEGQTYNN
UniProt Q5RKV6, whole entry: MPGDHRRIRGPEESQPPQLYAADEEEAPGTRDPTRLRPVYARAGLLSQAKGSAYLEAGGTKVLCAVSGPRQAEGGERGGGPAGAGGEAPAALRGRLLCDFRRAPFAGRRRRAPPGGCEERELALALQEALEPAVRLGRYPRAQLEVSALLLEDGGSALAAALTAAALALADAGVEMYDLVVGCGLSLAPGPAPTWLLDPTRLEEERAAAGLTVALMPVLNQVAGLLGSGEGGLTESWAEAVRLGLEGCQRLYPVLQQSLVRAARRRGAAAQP
UniProt Q15386: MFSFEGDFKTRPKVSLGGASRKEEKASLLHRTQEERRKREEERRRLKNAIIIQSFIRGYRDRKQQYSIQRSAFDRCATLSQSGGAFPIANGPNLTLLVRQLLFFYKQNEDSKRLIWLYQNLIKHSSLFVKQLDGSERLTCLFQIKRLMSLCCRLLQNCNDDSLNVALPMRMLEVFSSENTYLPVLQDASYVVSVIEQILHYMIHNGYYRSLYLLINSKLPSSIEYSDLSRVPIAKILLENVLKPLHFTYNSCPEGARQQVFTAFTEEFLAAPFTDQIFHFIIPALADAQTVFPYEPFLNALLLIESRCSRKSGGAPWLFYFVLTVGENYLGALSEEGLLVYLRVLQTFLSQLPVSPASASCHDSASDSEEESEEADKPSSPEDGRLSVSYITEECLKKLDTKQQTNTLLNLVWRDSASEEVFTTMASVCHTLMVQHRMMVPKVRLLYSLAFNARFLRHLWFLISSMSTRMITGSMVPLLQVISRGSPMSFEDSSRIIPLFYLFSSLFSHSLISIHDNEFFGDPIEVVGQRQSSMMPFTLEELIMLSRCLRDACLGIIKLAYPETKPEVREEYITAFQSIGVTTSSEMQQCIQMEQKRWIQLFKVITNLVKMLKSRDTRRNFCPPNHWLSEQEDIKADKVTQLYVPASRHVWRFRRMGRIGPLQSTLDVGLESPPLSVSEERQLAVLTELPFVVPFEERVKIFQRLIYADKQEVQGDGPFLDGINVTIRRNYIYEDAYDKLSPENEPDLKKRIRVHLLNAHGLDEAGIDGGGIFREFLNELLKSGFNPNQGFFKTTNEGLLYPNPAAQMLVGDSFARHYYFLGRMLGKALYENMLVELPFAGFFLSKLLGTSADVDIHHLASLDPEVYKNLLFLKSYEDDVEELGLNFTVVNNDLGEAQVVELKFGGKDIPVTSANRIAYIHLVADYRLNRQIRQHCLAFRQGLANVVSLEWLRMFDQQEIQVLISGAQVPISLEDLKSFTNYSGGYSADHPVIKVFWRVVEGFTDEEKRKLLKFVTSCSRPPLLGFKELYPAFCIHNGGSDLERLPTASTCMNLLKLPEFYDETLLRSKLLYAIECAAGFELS
UniProt Q4VC31: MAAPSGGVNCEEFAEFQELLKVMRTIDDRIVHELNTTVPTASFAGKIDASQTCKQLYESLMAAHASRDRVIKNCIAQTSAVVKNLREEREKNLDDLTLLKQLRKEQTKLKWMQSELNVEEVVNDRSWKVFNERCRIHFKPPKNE
UniProt Q53H12: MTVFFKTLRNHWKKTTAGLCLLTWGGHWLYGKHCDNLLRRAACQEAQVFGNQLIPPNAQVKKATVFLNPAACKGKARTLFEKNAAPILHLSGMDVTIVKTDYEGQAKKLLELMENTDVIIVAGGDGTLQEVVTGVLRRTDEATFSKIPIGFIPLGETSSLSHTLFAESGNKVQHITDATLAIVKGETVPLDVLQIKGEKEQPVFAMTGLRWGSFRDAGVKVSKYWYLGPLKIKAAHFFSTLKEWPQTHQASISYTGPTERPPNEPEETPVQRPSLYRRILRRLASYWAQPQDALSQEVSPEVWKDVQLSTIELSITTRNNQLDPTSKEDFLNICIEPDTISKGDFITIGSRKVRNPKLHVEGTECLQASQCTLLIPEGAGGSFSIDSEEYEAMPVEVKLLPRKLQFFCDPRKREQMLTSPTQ
UniProt Q5K651: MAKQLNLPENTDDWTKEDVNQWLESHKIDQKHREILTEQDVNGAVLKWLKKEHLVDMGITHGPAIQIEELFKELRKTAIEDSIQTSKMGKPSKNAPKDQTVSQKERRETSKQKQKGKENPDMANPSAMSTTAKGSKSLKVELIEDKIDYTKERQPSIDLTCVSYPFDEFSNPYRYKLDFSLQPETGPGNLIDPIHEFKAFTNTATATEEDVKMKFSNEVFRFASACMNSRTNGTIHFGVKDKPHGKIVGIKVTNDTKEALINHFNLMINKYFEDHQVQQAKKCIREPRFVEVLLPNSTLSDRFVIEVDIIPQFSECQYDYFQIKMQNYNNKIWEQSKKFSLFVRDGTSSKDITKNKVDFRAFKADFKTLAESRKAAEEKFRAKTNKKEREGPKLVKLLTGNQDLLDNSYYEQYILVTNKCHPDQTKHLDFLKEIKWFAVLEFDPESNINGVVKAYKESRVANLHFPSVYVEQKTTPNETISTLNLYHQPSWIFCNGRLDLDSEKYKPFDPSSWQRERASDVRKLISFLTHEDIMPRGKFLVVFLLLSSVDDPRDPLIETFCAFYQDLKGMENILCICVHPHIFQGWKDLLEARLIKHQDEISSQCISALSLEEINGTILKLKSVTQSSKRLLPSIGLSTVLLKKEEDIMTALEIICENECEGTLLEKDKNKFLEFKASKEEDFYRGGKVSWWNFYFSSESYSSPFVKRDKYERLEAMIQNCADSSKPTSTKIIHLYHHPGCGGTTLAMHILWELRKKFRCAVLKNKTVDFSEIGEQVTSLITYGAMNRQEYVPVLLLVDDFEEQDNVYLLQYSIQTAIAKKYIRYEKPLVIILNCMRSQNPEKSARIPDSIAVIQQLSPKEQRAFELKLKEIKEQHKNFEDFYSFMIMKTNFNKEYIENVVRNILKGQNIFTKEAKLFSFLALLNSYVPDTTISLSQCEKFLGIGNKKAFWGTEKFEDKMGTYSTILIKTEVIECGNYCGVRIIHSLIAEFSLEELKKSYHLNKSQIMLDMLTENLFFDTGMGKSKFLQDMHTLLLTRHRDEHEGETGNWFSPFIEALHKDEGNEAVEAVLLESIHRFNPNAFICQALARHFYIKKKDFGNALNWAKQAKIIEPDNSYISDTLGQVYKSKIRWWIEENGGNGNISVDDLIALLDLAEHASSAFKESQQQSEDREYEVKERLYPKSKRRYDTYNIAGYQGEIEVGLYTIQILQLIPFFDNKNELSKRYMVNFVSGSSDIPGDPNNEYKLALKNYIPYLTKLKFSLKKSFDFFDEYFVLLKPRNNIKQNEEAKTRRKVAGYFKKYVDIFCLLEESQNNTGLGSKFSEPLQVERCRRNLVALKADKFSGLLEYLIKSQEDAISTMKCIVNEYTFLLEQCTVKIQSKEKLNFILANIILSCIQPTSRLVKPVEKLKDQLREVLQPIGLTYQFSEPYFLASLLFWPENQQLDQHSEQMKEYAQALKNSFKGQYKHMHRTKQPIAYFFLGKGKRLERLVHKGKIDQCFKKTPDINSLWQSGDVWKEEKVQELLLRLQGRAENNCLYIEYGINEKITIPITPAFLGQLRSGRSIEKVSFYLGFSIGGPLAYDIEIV
UniProt Q15650: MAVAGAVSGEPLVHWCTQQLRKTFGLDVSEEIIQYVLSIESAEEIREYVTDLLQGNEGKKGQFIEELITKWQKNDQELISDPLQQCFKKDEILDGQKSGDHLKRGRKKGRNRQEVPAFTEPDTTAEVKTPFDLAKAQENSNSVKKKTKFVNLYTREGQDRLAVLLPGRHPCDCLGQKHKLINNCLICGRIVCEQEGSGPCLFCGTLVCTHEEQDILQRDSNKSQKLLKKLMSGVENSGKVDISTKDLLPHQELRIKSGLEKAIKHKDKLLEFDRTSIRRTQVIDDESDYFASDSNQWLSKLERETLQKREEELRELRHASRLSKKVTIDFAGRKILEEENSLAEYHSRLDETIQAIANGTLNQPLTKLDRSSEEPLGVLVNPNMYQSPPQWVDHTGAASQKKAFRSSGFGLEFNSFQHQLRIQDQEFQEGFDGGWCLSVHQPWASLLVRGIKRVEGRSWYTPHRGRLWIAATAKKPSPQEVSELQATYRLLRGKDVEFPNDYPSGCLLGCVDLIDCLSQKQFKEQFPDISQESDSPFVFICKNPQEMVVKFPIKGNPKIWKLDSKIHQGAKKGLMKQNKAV
UniProt Q53H54: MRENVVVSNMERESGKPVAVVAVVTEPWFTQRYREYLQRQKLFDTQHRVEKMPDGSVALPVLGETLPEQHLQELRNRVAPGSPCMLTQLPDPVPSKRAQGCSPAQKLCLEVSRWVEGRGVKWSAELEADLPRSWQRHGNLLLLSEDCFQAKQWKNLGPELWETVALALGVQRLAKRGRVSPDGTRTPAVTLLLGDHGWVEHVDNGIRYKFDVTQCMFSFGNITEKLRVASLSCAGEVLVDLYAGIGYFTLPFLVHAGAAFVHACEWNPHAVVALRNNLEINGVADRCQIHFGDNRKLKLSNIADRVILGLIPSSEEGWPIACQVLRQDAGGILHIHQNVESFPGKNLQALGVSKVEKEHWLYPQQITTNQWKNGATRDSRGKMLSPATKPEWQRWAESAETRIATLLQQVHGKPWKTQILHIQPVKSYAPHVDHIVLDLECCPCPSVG
UniProt Q9UGV2: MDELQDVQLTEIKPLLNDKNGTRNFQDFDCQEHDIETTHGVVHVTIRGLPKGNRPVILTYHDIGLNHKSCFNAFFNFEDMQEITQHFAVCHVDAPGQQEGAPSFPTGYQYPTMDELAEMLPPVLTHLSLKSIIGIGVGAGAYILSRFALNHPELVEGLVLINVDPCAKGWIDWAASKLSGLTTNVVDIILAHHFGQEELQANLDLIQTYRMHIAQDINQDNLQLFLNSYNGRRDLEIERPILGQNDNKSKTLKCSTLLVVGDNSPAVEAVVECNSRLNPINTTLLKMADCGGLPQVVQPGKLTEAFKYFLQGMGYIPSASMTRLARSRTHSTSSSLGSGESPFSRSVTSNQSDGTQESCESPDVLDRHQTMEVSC
UniProt Q16611: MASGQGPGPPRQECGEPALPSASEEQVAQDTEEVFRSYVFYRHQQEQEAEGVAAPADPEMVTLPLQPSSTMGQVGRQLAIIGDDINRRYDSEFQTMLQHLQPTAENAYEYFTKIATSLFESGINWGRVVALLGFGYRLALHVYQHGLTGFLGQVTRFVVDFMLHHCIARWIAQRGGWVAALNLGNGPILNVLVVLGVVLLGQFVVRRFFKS
UniProt Q16875: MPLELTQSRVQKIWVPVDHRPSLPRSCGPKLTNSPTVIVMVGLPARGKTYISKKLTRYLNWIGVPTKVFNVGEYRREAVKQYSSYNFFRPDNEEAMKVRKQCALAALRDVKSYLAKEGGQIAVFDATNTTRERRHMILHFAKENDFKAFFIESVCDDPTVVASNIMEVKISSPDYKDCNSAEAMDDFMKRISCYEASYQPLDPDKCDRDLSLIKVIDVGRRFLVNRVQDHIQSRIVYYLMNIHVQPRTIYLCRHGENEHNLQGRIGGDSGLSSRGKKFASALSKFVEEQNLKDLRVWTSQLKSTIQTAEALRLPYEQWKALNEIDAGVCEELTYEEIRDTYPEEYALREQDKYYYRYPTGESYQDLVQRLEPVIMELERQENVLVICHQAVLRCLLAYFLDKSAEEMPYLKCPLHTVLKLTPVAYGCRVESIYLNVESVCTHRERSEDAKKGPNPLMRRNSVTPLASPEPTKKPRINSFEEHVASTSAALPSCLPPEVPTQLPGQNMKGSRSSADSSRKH

Compound: Nc1ncnc2c1ncn2[C@@H]1O[C@H](COP(=O)(O)OP(=O)(O)NP(=O)(O)O)[C@@H](O)[C@H]1O [adenylyl imidodiphosphate]
Assay: NP40-soluble protein abundance relative to vehicle (solubility fold change) (ratio); higher = more soluble protein in presence of AMP-PNP
In short: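 Values are fold changes against the detergent-processed vehicle, based on vsn-normalised intensities. Jurkat crude lysate was treated at eight concentrations from 0.1 to 10 mM (10 min at room temperature, then 3 min at 37 °C), solubilised with 0.8% NP40 and benzonase, ultracentrifuged and analysed by TMT-labelled LC-MS/MS over three independent experiments.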

Target	NP40-soluble protein abundance (concentration: 0.1mM)	NP40-soluble protein abundance (concentration: 0.5mM)
VMA21 (UniProt Q3ZAQ7)	0.985 ± 0.025	0.9425 ± 0.0084
UniProt Q32MZ4 and related entries	0.979 ± 0.021	1.01 ± 0.044
UBE2V2 (UniProt Q15819)	1.01 ± 0.044	1.01 ± 0.048
UniProt Q16513 and related entries	0.985 ± 0.019	0.985 ± 0.055
Q15392 and related entries (UniProt Q3LIE7+Q15392)	1.05 ± 0.026	1.02 ± 0.16
TSR1 (UniProt Q2NL82)	0.946 ± 0.035	0.883 ± 0.017
EXOSC6 (UniProt Q5RKV6)	1.03 ± 0.018	1.04 ± 0.018
Q5QPM7 and related entries (UniProt Q92530)	1 ± 0.011	1.01 ± 0.066
FAM102B (UniProt Q5T8I3)	0.977 ± 0.054	1.02 ± 0.066
UniProt Q3ZCQ8 and related entries	0.985 ± 0.037	0.998 ± 0.049
UniProt Q5EBL8 and related entries	1.005 ± 0.0023	1.01 ± 0.028
UniProt Q15599 and related entries	1.01 ± 0.028	1.03 ± 0.032
Q495G5 and related entries (UniProt Q8IVH4)	0.974 ± 0.031	0.985 ± 0.045
TRADD (UniProt Q15628)	0.998 ± 0.015	0.9983 ± 0.0074
UBAP2 (UniProt Q5T6F2)	0.9965 ± 0.0052	1.01 ± 0.04
UniProt Q15435 and related entries	0.992 ± 0.041	1.01 ± 0.038
UniProt Q4J6C6 and related entries	0.99 ± 0.029	0.972 ± 0.053
UniProt Q5R372 and related entries	0.952 ± 0.032	0.9412 ± 0.0094
UBE3C (UniProt Q15386)	1.01 ± 0.036	0.965 ± 0.042
NSDHL (UniProt Q15738)	0.993 ± 0.026	0.98 ± 0.031
CAMK4 (UniProt Q16566)	1.02 ± 0.044	1.01 ± 0.034
UniProt Q2KHR2 and related entries	0.999 ± 0.032	0.996 ± 0.027
CCDC58 (UniProt Q4VC31)	0.983 ± 0.059	1.02 ± 0.047
TERF2 (UniProt Q15554)	0.996 ± 0.025	1.05 ± 0.031
FAM98C (UniProt Q17RN3)	0.988 ± 0.024	0.997 ± 0.035
UniProt Q15633 and related entries	0.945 ± 0.022	0.968 ± 0.011
MAN2A1 (UniProt Q16706)	0.977 ± 0.017	0.953 ± 0.04

Reformatted field by field: entries from further up.
UniProt Q4J6C6 and related entries
  NP40-soluble protein abundance (concentration: 0.1mM): 0.99 ± 0.029
  NP40-soluble protein abundance (concentration: 0.5mM): 0.972 ± 0.053
UniProt Q5R372 and related entries
  NP40-soluble protein abundance (concentration: 0.1mM): 0.952 ± 0.032
  NP40-soluble protein abundance (concentration: 0.5mM): 0.9412 ± 0.0094
UBE3C (UniProt Q15386)
  NP40-soluble protein abundance (concentration: 0.1mM): 1.01 ± 0.036
  NP40-soluble protein abundance (concentration: 0.5mM): 0.965 ± 0.042
NSDHL (UniProt Q15738)
  NP40-soluble protein abundance (concentration: 0.1mM): 0.993 ± 0.026
  NP40-soluble protein abundance (concentration: 0.5mM): 0.98 ± 0.031

(cont.)

Target	NP40-soluble protein abundance (concentration: 0.1mM)	NP40-soluble protein abundance (concentration: 0.5mM)
AGK (UniProt Q53H12)	1.02 ± 0.037	0.954 ± 0.071
UAP1L1 (UniProt Q3KQV9)	1.01 ± 0.012	0.981 ± 0.024
GFOD2 (UniProt Q3B7J2)	0.996 ± 0.019	1.002 ± 0.0037
UniProt Q5T5C0 and related entries	0.97454 ± 0.0002	1.01 ± 0.033
ZC3H13 (UniProt Q5T200)	1 ± 0.019	1.03 ± 0.021
UniProt Q15596 and related entries	1.01 ± 0.053	0.98 ± 0.051
TAF11 (UniProt Q15544)	1.012 ± 0.0031	1.03 ± 0.011
UniProt Q15653 and related entries	1.01 ± 0.016	0.986 ± 0.012
MIA3 (UniProt Q5JRA6)	0.986 ± 0.023	1.01 ± 0.049
ARL13B (UniProt Q3SXY8)	0.99 ± 0.04	1.01 ± 0.015
SLC1A5 (UniProt Q15758)	0.965 ± 0.026	0.938 ± 0.028
UniProt Q5JVF3 and related entries	0.979 ± 0.021	0.983 ± 0.027
UniProt Q4G0J3 and related entries	1.01 ± 0.069	1.02 ± 0.051
ADRM1 (UniProt Q16186)	0.992 ± 0.053	0.965 ± 0.056
SAMD9 (UniProt Q5K651)	1.02 ± 0.039	0.98 ± 0.052
TBC1D10B (UniProt Q4KMP7)	1.01 ± 0.074	0.963 ± 0.076
UniProt Q5T5Y3 and related entries	0.994 ± 0.04	0.9891 ± 0.0023
UniProt Q5FWF5	0.9726 ± 0.0029	0.9922 ± 0.0083
ELAVL1 (UniProt Q15717)	0.999 ± 0.021	0.997 ± 0.022
UniProt Q562F6 and related entries	1 ± 0.031	0.999 ± 0.021
UniProt Q53F19	0.977 ± 0.025	0.978 ± 0.018
UniProt Q1MSJ5 and related entries	1.033 ± 0.01	1.02 ± 0.0076
PDS5A (UniProt Q29RF7)	0.9941 ± 0.0097	1.002 ± 0.0012
TRMT5 (UniProt Q32P41)	0.984 ± 0.011	1 ± 0.068
UniProt Q5T8P6 and related entries	1.02 ± 0.03	1.03 ± 0.027
UniProt Q5JPI3-2|E9PFZ1 and related entries	0.989 ± 0.079	0.998 ± 0.034
FSCN1 (UniProt Q16658)	0.987 ± 0.039	1 ± 0.056

Target	NP40-soluble protein abundance (concentration: 0.1mM)	NP40-soluble protein abundance (concentration: 0.5mM)
UniProt Q2KHR3 and related entries	1.013 ± 0.0053	1.02 ± 0.035
ESCO2 (UniProt Q56NI9)	1.007 ± 0.0084	1.009 ± 0.0088
UniProt Q16576 and related entries	0.977 ± 0.045	0.928 ± 0.094
UniProt Q15652 and related entries	0.9848 ± 0.0088	0.984 ± 0.022
UniProt Q16630-2|Q16630	1.04 ± 0.013	1.05 ± 0.029
C2orf76 (UniProt Q3KRA6)	0.99 ± 0.042	0.98 ± 0.017
UniProt Q16643 and related entries	1.01 ± 0.039	1.15 ± 0.048
UBE2S (UniProt Q16763)	1.04 ± 0.034	1.03 ± 0.011
SURF2 (UniProt Q15527)	1.013 ± 0.0084	1.03 ± 0.04
UniProt Q2TBE0 and related entries	1.01 ± 0.035	1.01 ± 0.037
UniProt Q15669	0.981 ± 0.019	0.987 ± 0.0086
UniProt Q15906 and related entries	1 ± 0.048	1.01 ± 0.048
UniProt Q15782-5|H0YE91 and related entries	0.903 ± 0.031	0.872 ± 0.074
UniProt Q15750 and related entries	1.01 ± 0.055	1 ± 0.03
UniProt Q5JTV8 and related entries	0.959 ± 0.026	0.981 ± 0.044
OCIAD2 (UniProt Q56VL3)	0.988 ± 0.02	1 ± 0.034
UniProt Q15370 and related entries	0.997 ± 0.03	1.04 ± 0.055
DNTTIP2 (UniProt Q5QJE6)	0.989 ± 0.058	1.04 ± 0.043
UniProt Q2KHT3 and related entries	0.921 ± 0.049	0.936 ± 0.049
MAPRE1 (UniProt Q15691)	0.983 ± 0.045	1.07 ± 0.14
SF3B4 (UniProt Q15427)	1.03 ± 0.057	0.994 ± 0.028
RALBP1 (UniProt Q15311)	0.99 ± 0.033	0.97 ± 0.015
TRIP4 (UniProt Q15650)	0.989 ± 0.017	0.995 ± 0.039
ERCC6L (UniProt Q2NKX8)	0.9733 ± 0.0036	0.974 ± 0.027
UniProt Q5F1R6 and related entries	1.01 ± 0.017	1.039 ± 0.0078
TBCC (UniProt Q15814)	0.996 ± 0.012	1 ± 0.04
UniProt Q5T0F9-2	1.01 ± 0.049	1.03 ± 0.035

Target	NP40-soluble protein abundance (concentration: 0.1mM)	NP40-soluble protein abundance (concentration: 0.5mM)
UniProt Q4KMQ2 and related entries	0.986 ± 0.036	0.9866 ± 0.0064
UniProt Q460N5 and related entries	1.01 ± 0.029	0.977 ± 0.02
UniProt Q5T280	0.987 ± 0.013	1.02 ± 0.02
LLGL1 (UniProt Q15334)	1.05 ± 0.017	0.961 ± 0.019
TRMT12 (UniProt Q53H54)	1 ± 0.062	0.997 ± 0.063
HSDL1 (UniProt Q3SXM5)	1.02 ± 0.038	0.954 ± 0.12
Q5TH30 and related entries (UniProt Q9UGV2)	1.02 ± 0.044	1.01 ± 0.019
UniProt Q2M296 and related entries	0.978 ± 0.014	0.98 ± 0.0079
RABEP1 (UniProt Q15276)	0.97 ± 0.034	0.996 ± 0.026
GRIPAP1 (UniProt Q4V328)	0.977 ± 0.018	0.985 ± 0.051
PGGHG (UniProt Q32M88)	1.01 ± 0.026	0.998 ± 0.015
MANEA (UniProt Q5SRI9)	0.988 ± 0.041	1 ± 0.038
UniProt Q5JRX3 and related entries	0.9983 ± 0.0064	1.006 ± 0.0088
UniProt Q16611 and related entries	1 ± 0.036	0.962 ± 0.059
UniProt Q15910 and related entries	0.995 ± 0.037	1.01 ± 0.042
UniProt Q4G148 and related entries	1 ± 0.023	1.01 ± 0.025
Q5JVZ5 and related entries (UniProt Q96JJ3)	0.945 ± 0.034	0.925 ± 0.061
UniProt Q15223	0.989 ± 0.037	1.01 ± 0.038
UniProt Q53H47 and related entries	1.02 ± 0.013	0.993 ± 0.014
UniProt Q16875 and related entries	0.995 ± 0.023	0.994 ± 0.038
ZC3H12A (UniProt Q5D1E8)	0.998 ± 0.012	0.9939 ± 0.0044
UniProt Q15291 and related entries	1.02 ± 0.047	1.02 ± 0.053
NOM1 (UniProt Q5C9Z4)	0.987 ± 0.048	0.9896 ± 0.0072
CDCA8 (UniProt Q53HL2)	1.03 ± 0.025	1.02 ± 0.053
